Results deposited as PubChem BioAssay AID504744 (Drosophila RNAi Screening Center, 2011).
The screen tested about 23,000 reagents; this is an unselected part of those that have a named target and a result. In the full data, 98 (0.43%) got an active call. 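Only hit calls are given; the phospho-dAkt signals, z-scores and hit direction were not deposited.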 Names joined by + are all predicted targets of the reagent. Reagent sequences are not shown.

- Screen: 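Find genes whose loss alters insulin-driven dAkt phosphorylation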 (primary screen)
- System: Drosophila Kc167 cells
- Knock-down reagent: long dsRNA against Drosophila genes, 250 ng dsRNA per well of a 384-well plate
- Duration: 3 days of knock-down, then overnight serum-free starvation before stimulation
- Conditions: bovine insulin at 387 nM for 10 minutes after 12 h without serum
- Measurement: 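In-cell antibody fluorescence for phospho-dAkt in each well over DNA-dye signal, with log2 residuals expressed as z-scores adjusted for cell count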
- Rule for the call: 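Under insulin, a gene counts as a hit if the average z-score of two replicates lies above 2.5 or below -2.5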

| gene | dsRNA | call |
| --- | --- | --- |
| CG17024 (retired record) | DRSC02562 | inactive |
| fdl | DRSC07279 | inactive |
| CG4194 | DRSC18520 | inactive |
| CG34310 | DRSC00943 | inactive |
| Faf2 | DRSC03325 | inactive |
| Snx21 | DRSC00564 | inactive |
| CG3335 | DRSC10358 | inactive |
| CG9168 | DRSC08633 | inactive |
| CG6295 | DRSC16012 | inactive |
| E2f2 | DRSC03320 | inactive |
| CG16727 | DRSC15139 | inactive |
| Ufc1 | DRSC07156 | inactive |
| Rfk | DRSC15454 | inactive |
| Tsp33B | DRSC02418 | inactive |
| CG15696 | DRSC15118 | inactive |
| Pfdn4 | DRSC09761 | inactive |
| Hsp83 | DRSC08664 | inactive |
| CG17684 | DRSC07724 | inactive |
| CG17684 | DRSC21166 | inactive |
| Pebp1 | DRSC15354 | inactive |
| RhoU | DRSC17635 | inactive |
| RhoU | DRSC17803 | inactive |
| RhoU | DRSC17804 | inactive |
| RhoU | DRSC22159 | inactive |
| RhoU | DRSC22396 | inactive |
| CG6357 | DRSC06979 | inactive |
| timeout | DRSC12950 | inactive |
| timeout | DRSC17078 | inactive |
| timeout | DRSC17079 | inactive |
| timeout | DRSC17080 | inactive |
| timeout | DRSC17081 | inactive |
| timeout | DRSC21535 | inactive |
| CG8852 | DRSC00719 | inactive |
| CG3662 | DRSC00626 | inactive |
| alphaSnap | DRSC11285 | inactive |
| CG42322 | DRSC15112 | inactive |
| CG42322 | DRSC15113 | inactive |
| CG42322 | DRSC15114 | inactive |
| Pepck2 | DRSC06013 | inactive |
| CG15629 | DRSC00464 | inactive |
| CG10576 | DRSC09745 | inactive |
| prd1 | DRSC15227 | inactive |
| CG12945 | DRSC14573 | inactive |
| Boh1 | DRSC14487 | inactive |
| CG11670 | DRSC14342 | inactive |
| Slimp | DRSC13656 | inactive |
| CG31680 | DRSC21878 | inactive |
| CkIalpha | DRSC20231 | inactive |
| CkIalpha | DRSC22609 | inactive |
| CG13901 | DRSC08371 | inactive |
| Naprt | DRSC00630 | inactive |
| CG32706 + CG6999 | DRSC18412 | inactive |
| CG31125 | DRSC13684 | inactive |
| AANATL5 | DRSC05994 | inactive |
| Syt7 | DRSC17130 | inactive |
| Syt7 | DRSC17159 | inactive |
| CG30429 | DRSC04040 | inactive |
| CG6614 | DRSC02974 | inactive |
| Hml | DRSC11183 | inactive |
| PGRP-LC | DRSC08980 | inactive |
| PGRP-LC | DRSC10416 | inactive |
| PGRP-LC | DRSC10417 | inactive |
| pyr | DRSC06319 | inactive |
| pyr | DRSC22520 | inactive |
| CG3740 | DRSC18508 | inactive |
| GstE6 | DRSC06676 | inactive |
| OS9 | DRSC02700 | inactive |
| Sap47 | DRSC16850 | inactive |
| CG5866 | DRSC15900 | inactive |
| RpL10Aa | DRSC15518 | inactive |
| tzn | DRSC11755 | inactive |
| lola | DRSC05220 | inactive |
| lola | DRSC05221 | inactive |
| lola | DRSC05222 | inactive |
| lola | DRSC05223 | inactive |
| lola | DRSC05224 | inactive |
| lola | DRSC06738 | inactive |
| lola | DRSC06739 | inactive |
| lola | DRSC06740 | inactive |
| lola | DRSC06741 | inactive |
| lola | DRSC06742 | inactive |
| lola | DRSC07646 | inactive |
| lola | DRSC07647 | inactive |
| Obp50a | DRSC22152 | inactive |
| CG16854 | DRSC02536 | inactive |
| CG14929 + CG4970 | DRSC02411 | inactive |
| CG14929 + CG4970 | DRSC02796 | inactive |
| HipHop | DRSC10734 | inactive |
| Klp59C | DRSC04348 | inactive |
| CG11307 | DRSC11648 | inactive |
| Xe7 | DRSC12307 | inactive |
| CG32432 | DRSC11703 | inactive |
| CG32432 | DRSC11704 | inactive |
| CG32432 | DRSC11744 | inactive |
| CG30496 | DRSC06805 | inactive |
| CG11200 | DRSC06060 | inactive |
| Mink | DRSC14291 | inactive |
| Set2 | DRSC19765 | inactive |
| Mco1 | DRSC02720 | inactive |
| CG14931 | DRSC02413 | inactive |
| Fbxo42 | DRSC04529 | inactive |
| MtnB | DRSC22744 | inactive |
| loopin-1 | DRSC06888 | inactive |
| SmydA-1 | DRSC07200 | inactive |
| CG13947 | DRSC00365 | inactive |
| CG3588 | DRSC18473 | inactive |
| kis | DRSC00521 | inactive |
| kis | DRSC00625 | inactive |
| kis | DRSC00823 | inactive |

Reformatted: entries from further up.
{"gene": "CG14929 + CG4970", "dsRNA": "DRSC02411", "call": "inactive"}
{"gene": "CG14929 + CG4970", "dsRNA": "DRSC02796", "call": "inactive"}
{"gene": "HipHop", "dsRNA": "DRSC10734", "call": "inactive"}
{"gene": "Klp59C", "dsRNA": "DRSC04348", "call": "inactive"}
{"gene": "CG11307", "dsRNA": "DRSC11648", "call": "inactive"}
{"gene": "Xe7", "dsRNA": "DRSC12307", "call": "inactive"}
{"gene": "CG32432", "dsRNA": "DRSC11703", "call": "inactive"}
{"gene": "CG32432", "dsRNA": "DRSC11704", "call": "inactive"}
{"gene": "CG32432", "dsRNA": "DRSC11744", "call": "inactive"}
{"gene": "CG30496", "dsRNA": "DRSC06805", "call": "inactive"}
{"gene": "CG11200", "dsRNA": "DRSC06060", "call": "inactive"}
{"gene": "Mink", "dsRNA": "DRSC14291", "call": "inactive"}
